Results as given in the supplement of paper PMC11006884.
This is a selection; strong and weak results do not stand in their true shares. Single values of this set are uncertain.

Sequences of proteins named here, by UniProt entry; tags and fusion partners are left off. A change or cut given only in a name is not applied to a line headed by its entry.
UniProt Q01844: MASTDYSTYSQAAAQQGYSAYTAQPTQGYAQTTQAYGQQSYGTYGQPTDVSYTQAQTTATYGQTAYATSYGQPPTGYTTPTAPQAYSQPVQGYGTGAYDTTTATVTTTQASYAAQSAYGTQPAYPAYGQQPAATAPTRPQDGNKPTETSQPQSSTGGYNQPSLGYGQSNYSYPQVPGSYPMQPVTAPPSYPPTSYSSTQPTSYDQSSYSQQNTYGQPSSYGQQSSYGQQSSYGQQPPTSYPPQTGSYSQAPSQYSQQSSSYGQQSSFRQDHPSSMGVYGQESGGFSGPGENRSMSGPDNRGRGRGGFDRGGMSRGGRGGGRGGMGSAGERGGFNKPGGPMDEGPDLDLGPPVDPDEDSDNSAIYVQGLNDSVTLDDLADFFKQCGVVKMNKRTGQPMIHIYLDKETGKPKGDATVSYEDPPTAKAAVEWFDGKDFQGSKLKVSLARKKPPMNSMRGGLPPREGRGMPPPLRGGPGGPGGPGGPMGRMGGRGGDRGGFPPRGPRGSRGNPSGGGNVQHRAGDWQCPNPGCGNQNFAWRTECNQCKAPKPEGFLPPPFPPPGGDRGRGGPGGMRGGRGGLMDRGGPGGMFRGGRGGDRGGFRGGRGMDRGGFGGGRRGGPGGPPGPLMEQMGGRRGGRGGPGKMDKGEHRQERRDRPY
UniProt P62633: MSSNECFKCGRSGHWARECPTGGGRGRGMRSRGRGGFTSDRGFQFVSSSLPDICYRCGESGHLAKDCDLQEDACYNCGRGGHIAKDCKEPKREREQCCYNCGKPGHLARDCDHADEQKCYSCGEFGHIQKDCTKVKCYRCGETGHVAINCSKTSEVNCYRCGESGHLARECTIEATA
UniProt P78527, whole entry, looked up: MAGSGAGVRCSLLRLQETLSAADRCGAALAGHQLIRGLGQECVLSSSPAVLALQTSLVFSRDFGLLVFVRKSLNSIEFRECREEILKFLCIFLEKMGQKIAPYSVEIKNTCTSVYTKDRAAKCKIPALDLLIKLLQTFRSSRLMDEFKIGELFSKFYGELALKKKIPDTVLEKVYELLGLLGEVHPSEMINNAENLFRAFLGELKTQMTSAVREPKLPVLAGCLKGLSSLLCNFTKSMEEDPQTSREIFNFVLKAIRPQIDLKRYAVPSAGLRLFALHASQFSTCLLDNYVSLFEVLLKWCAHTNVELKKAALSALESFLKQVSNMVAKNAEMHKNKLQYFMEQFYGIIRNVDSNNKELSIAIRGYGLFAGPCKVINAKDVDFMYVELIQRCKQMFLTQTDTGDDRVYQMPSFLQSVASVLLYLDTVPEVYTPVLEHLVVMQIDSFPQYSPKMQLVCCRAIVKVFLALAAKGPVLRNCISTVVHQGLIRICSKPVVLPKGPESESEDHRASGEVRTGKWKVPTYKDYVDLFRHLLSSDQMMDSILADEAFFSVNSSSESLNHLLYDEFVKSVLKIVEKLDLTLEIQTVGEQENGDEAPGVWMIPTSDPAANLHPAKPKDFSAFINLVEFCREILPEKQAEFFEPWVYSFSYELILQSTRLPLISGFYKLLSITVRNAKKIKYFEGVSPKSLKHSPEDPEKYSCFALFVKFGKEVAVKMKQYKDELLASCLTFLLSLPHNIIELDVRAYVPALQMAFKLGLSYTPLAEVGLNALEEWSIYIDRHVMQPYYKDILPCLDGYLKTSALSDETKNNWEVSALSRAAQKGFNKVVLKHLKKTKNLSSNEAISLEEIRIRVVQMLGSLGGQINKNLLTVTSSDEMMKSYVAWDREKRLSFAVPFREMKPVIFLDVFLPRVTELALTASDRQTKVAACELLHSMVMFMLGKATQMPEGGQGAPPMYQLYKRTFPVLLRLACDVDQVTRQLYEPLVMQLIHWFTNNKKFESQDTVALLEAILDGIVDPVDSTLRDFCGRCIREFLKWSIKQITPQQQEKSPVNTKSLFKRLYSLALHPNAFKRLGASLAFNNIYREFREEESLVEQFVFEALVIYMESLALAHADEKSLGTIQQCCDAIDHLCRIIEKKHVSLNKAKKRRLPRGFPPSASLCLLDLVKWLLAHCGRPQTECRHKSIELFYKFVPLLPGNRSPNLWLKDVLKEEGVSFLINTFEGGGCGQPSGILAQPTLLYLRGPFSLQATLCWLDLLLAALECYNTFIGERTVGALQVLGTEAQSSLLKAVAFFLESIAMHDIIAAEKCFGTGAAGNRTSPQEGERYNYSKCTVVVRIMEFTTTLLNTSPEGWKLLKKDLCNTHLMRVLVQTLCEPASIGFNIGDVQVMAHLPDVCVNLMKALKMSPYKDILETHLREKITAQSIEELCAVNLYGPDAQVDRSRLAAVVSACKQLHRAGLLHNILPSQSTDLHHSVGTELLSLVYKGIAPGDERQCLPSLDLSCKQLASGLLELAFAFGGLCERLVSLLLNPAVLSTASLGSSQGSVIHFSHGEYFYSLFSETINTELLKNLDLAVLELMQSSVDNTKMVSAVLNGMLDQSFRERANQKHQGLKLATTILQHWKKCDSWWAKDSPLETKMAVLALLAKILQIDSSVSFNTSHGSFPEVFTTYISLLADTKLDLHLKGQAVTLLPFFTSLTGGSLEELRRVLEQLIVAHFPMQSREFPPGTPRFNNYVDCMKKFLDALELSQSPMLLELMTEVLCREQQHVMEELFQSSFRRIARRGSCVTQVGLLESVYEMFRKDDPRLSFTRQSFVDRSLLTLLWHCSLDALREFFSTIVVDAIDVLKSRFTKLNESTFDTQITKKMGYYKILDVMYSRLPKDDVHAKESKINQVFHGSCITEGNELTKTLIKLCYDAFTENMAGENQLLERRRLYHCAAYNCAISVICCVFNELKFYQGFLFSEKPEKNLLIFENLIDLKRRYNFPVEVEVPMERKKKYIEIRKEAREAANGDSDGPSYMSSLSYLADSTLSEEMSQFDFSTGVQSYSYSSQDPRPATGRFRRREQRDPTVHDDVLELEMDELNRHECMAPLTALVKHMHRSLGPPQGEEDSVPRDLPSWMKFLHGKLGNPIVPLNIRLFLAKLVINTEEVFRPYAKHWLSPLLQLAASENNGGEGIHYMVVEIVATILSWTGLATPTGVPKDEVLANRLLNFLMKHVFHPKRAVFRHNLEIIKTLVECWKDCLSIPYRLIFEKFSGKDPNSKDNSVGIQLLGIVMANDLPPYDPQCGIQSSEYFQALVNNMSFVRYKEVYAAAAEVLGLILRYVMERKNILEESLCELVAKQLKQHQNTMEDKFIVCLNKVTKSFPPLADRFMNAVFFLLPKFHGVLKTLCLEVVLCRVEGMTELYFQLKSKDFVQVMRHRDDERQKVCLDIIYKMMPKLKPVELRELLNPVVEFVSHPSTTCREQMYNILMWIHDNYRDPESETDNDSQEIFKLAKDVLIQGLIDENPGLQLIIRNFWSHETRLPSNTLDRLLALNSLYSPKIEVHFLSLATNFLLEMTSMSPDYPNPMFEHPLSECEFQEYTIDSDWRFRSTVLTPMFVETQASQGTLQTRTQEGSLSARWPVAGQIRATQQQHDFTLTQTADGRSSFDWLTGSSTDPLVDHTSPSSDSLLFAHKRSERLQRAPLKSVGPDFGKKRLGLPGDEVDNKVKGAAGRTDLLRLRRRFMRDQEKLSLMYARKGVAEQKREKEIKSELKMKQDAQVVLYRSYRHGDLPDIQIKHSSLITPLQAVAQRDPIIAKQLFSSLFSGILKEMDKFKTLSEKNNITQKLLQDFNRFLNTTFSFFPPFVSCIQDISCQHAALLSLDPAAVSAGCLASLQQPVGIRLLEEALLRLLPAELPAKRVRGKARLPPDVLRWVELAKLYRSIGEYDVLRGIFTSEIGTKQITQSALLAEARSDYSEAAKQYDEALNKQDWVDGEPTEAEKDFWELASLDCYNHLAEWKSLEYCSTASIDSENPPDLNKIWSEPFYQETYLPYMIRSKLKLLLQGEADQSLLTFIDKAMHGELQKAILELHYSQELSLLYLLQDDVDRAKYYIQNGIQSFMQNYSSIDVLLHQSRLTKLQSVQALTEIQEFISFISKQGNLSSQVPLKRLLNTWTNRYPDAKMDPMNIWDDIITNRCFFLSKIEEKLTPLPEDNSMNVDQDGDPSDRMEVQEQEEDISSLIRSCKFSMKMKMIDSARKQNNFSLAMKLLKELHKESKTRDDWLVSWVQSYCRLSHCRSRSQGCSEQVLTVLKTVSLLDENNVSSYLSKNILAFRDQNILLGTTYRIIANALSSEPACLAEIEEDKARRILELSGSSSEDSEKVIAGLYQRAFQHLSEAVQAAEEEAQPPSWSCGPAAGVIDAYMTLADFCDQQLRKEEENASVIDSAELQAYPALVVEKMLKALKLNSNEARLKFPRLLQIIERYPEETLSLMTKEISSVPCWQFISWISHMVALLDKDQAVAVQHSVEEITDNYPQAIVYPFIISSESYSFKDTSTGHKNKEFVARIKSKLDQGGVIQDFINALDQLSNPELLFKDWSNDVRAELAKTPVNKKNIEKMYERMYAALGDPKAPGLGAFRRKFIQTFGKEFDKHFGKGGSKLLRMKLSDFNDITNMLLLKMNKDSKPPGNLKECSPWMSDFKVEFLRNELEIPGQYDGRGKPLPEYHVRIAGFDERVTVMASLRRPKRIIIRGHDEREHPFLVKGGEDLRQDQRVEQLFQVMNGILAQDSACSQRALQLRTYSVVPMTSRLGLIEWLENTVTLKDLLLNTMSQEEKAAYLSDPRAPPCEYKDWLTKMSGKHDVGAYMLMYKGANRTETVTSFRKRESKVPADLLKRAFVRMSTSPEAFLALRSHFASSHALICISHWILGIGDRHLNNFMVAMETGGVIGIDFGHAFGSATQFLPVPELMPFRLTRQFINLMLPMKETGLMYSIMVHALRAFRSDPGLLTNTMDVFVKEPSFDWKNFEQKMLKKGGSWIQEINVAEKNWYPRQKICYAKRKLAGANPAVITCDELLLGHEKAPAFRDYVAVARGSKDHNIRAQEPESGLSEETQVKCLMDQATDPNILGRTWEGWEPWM
UniProt P68363, whole entry, looked up: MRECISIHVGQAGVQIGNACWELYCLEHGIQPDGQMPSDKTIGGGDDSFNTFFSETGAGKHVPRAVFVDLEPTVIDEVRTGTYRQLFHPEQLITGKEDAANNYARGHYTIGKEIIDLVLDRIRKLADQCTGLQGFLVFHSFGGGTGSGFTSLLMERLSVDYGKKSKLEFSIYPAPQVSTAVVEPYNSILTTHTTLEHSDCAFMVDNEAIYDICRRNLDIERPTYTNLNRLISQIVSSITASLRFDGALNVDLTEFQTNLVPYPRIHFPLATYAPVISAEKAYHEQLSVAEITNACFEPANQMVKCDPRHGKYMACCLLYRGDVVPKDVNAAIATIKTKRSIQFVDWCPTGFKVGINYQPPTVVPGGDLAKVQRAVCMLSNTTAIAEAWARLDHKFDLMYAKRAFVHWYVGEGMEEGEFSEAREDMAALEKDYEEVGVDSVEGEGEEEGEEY
UniProt P63104: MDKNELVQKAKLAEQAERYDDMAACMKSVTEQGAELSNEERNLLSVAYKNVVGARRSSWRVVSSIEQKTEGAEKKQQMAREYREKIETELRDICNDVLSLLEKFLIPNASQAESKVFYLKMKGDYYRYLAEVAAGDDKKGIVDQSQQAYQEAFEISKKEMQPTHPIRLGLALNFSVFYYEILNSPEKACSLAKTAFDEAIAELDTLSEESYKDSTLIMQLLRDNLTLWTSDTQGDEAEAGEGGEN
UniProt P98170, whole entry, looked up: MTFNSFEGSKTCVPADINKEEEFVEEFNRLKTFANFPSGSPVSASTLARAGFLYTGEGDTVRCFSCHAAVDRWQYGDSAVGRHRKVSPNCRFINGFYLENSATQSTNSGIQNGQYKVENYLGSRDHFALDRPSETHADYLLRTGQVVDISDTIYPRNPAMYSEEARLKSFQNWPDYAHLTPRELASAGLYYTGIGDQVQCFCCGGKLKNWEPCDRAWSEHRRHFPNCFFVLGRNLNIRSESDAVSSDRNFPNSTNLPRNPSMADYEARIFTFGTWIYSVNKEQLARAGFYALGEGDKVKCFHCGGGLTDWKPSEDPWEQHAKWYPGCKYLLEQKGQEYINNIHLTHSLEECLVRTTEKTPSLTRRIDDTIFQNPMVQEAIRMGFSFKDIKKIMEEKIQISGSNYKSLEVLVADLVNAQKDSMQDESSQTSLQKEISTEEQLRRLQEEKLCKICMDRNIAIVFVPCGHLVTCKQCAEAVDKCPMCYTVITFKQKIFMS
UniProt Q00059: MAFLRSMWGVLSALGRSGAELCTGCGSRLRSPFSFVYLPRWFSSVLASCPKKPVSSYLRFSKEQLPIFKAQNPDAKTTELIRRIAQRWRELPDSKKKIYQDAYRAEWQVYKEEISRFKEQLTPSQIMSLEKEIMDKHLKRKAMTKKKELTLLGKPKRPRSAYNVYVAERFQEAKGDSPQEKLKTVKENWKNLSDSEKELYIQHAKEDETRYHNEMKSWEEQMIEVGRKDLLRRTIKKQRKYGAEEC
UniProt Q01469, whole entry, looked up: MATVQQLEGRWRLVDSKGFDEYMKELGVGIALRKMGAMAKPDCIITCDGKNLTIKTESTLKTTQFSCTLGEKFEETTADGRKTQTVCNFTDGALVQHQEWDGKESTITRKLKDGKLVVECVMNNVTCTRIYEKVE

compound: COC(=O)/C=C/c1ccccc1 [methyl cinnamate]; test: log2 ratio of iodoacetamide-alkyne labeling of the cysteine site, DMSO over compound (competition); higher = stronger covalent engagement of the cysteine by the compound, active = 1 or more; settings: 500 µM; treatment time 1 h; system: HEK293T cell lysate
Method in brief: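 The log2 competition ratio per cysteine is defined as mean reporter intensity in control channels over mean reporter intensity in compound channels. Lysate from HEK293T cells (2 mg/mL) received electrophile (500 µM) or vehicle for 1 h at ambient temperature, followed by iodoacetamide alkyne for 1 h. Samples were clicked to sCIP-TMT reagents, pooled, trypsin-digested overnight at 37 °C, streptavidin-enriched, acid-eluted and run on Orbitrap Eclipse LC-MS/MS with FAIMS, with quantification in FragPipe. Three replicates with duplicate channels were used, and any cysteine quantified in only one replicate was excluded.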

log2 ratio of iodoacetamide-alkyne labeling, inactive:
EWSR1 C529 (UniProt Q01844) 0.0711, CNBP C6 (UniProt P62633) 0.249, UniProt P78527_C703 0.182, GNAS C174 (UniProt P63092) -0.595, SORD C301 (UniProt Q00796) 0.385, UniProt P62304_C46 0.207, CNBP C111 (UniProt P62633) 0.0375, SPTBN1 C964 (UniProt Q01082) 0.0684, CNBP C97 (UniProt P62633) 0.121, UniProt P68363_C376 0.0636, ACTG1 C17 (UniProt P63261) -0.0557, YWHAZ C94 (UniProt P63104) -0.19, XIAP C12 (UniProt P98170) 0.256, PURA C272 (UniProt Q00577) 0.32, TFAM C246 (UniProt Q00059) 0.376, PURA C292 (UniProt Q00577) 0.203, KIF23 C933 (UniProt Q02241) 0.112, UniProt P62753_C12 0.106, FABP5 C120 (UniProt Q01469) -0.055, UniProt P62826_C120 -0.239, UniProt P78527_C1791 0.00626, OTUD4 C903 (UniProt Q01804) 0.468, UniProt P78527_C3420 0.29
